{"source": "patent US10987357B2", "about": "“Aerosolized fluoroquinolones and uses thereof” (Horizon Orphan, LLC, priority 2005, dated 2021)", "assay": "Oral taste test (20 uL on the tongue)", "assay_type": "in vivo, human", "data": [{"compound": "O=C(O)c1cn(C2CC2)c2cc(N3CCNCC3)c(F)cc2c1=O", "note": "[Ciprofloxacin]", "values": [{"measurement": "Oral taste, Initial Solution", "setting": "10 mg/mL, single volunteer", "result": "sweet almond-like taste"}, {"measurement": "Oral taste, Final Solution", "setting": "after pH adjustment", "result": "very strong bitter"}]}]}
